Laboratory results from paper PMC6589724, “A geminivirus betasatellite encoded βC1 protein interacts with PsbP and subverts PsbP‐mediated antiviral defence in plants”.
No constants are given. Whether binding was seen depends on the method and setting. Binding can be weak; no strength is given. Sequences can lack the tags named with a protein.

B1: AD‐PsbP (Nicotiana benthamiana PsbP1, oxygen‐evolving enhancer protein 2, yeast two-hybrid prey) (protein, UniProt I0B7J5 1-265)
chain: MASTQCFLHHHALSTPARTPLVRSIVPSLKPNQLLVCRAQKQSAPQEDNVNSLSLSRRLALTLLIGSAAIGSKVSPADAAYGEAANVFGKPKTDTDFQTYNGDGFKLQIPSKWNPNKEVEYPGQVLRFEDNFDATSNVIVAITPTDKKSITDFGSPEQFLSQVDYLLGRQAYSGKTDSEGGFESDAVAIANVLETSSAEVIGKPYYYLSVLTRTADGNEGGKHQLITATVNDGKLYICKAQAGDKRWFKGAKKFVENTVTSFSLA
B2: AD‐NtPsbP (PsbP1 of Nicotiana tabacum cv. Samsun NN, yeast two-hybrid prey) (protein, UniProt Q7DM39 1-268)
chain: MASTQCFLHQHALSSSAARTTSSVSSQRYVSSLKPNQLVCRAQKQSSPQEDDGNSVVVSRRLALTVLIGAAAIGSKVSPADAAYGEAANVFGKPKENTDFLAYNGDGFKLQVPAKWNPSKEVEFPGQVLRYEDNFDSTSNLIVTVTPTDKKSITDYGSPEEFLTQVDFLLGKQAYFGKTDSEGGFESGAVATANLLETSSSTVGGKEYYILSVLTRTADGDEGGKHQLISATVNGGKLYICKAQAGDKRWFKGARKFVENAATSFSVA
B3: AD‐PsbPD12 (NbPsbP1 amino acids 1‐200, yeast two-hybrid prey) (domain or fragment, UniProt I0B7J5 1-200)
chain: MASTQCFLHHHALSTPARTPLVRSIVPSLKPNQLLVCRAQKQSAPQEDNVNSLSLSRRLALTLLIGSAAIGSKVSPADAAYGEAANVFGKPKTDTDFQTYNGDGFKLQIPSKWNPNKEVEYPGQVLRFEDNFDATSNVIVAITPTDKKSITDFGSPEQFLSQVDYLLGRQAYSGKTDSEGGFESDAVAIANVLETSSAEV
B4: MBP‐PsbP (recombinant Nicotiana benthamiana PsbP1) (protein, UniProt I0B7J5 1-265)
chain: MASTQCFLHHHALSTPARTPLVRSIVPSLKPNQLLVCRAQKQSAPQEDNVNSLSLSRRLALTLLIGSAAIGSKVSPADAAYGEAANVFGKPKTDTDFQTYNGDGFKLQIPSKWNPNKEVEYPGQVLRFEDNFDATSNVIVAITPTDKKSITDFGSPEQFLSQVDYLLGRQAYSGKTDSEGGFESDAVAIANVLETSSAEVIGKPYYYLSVLTRTADGNEGGKHQLITATVNDGKLYICKAQAGDKRWFKGAKKFVENTVTSFSLA
B5: AD‐PsbPD1 (NbPsbP1 amino acids 1‐100, yeast two-hybrid prey) (domain or fragment, UniProt I0B7J5 1-100)
chain: MASTQCFLHHHALSTPARTPLVRSIVPSLKPNQLLVCRAQKQSAPQEDNVNSLSLSRRLALTLLIGSAAIGSKVSPADAAYGEAANVFGKPKTDTDFQTY

Columns and labels:
[1] = molecular target: BD‐βC1 (βC1 protein of Radish leaf curl betasatellite, yeast two-hybrid bait) (Radish leaf curl betasatellite); assay: two-hybrid; S. cerevisiae AH109; BD fusions (pGBKT7) with AD fusions (pGADT7); growth on SD‐Leu‐Trp‐His with 5 mM 3‐amino‐1,2,4‐triazole at 30 °C for 96 h
[2] = molecular target: GST‐βC1 (recombinant βC1 of Radish leaf curl betasatellite) (Radish leaf curl betasatellite); assay: pull-down; equal amounts of bacterially purified GST or GST‐βC1 and MBP or MBP‐PsbP mixed and incubated with glutathione resin for 4 h at 4 °C, five washes, eluate blotted with anti‐GST and anti‐MBP; both purified

| Binder | binding [1] | binding [2] |
| --- | --- | --- |
| B1 | binds | – |
| B2 | binds | – |
| B3 | binds | – |
| B4 | – | binds |
| B5 | no binding | – |
